Source: patent publication US7244430
These are yes or no findings as the source states them, for the method shown. A result given as binding can be weak or reduced; the word gives no strength.

Columns and labels:
[1] = biological target: West Nile virus strain USA99b (strain 385-99) (West Nile virus strain 385-99 (USA99b)); assay: phage ELISA, coated whole inactivated WNV
[2] = biological target: West Nile virus strain USA99b (strain 385-99) (West Nile virus strain 385-99 (USA99b)); assay: SPR (BIAcore 3000) affinity ranking: inactivated WNV captured on immobilised CR4283, 1000 nM antibody injected; response after association and after 370 s of dissociation, average of two measurements
[3] = biological target: West Nile virus strain USA99b (strain 385-99) (West Nile virus strain 385-99 (USA99b)); assay: Western blot or immunoprecipitation of inactivated WNV; E protein recognized

B1: SC04-283 (scFv)
scFv: EVQLVQSGAEVKKSGESLKISCKGSGYTFNTYWIGWVRQMPGKGLEWMGIIYPGDSDTIYSPSFQGQVTISADKSISTAYLQWSSLKASDSAMYYCARLTFRRGYSGSDSFLPPGDFDYWGQGTLVTVSSGTGGSGGTGSGTGGSTDIQMTQSPSTLSASVGDRVTITCRASQSISSWLAWYQQKPGKAPNLLIYAASSLQSGVPSRFSGSGSGTDFTLTISSLQPDDSATYYCQQYNTYPLTFGGGTKVEIKR
- binding [1]: binds

B2: SC04-311 (scFv)
scFv: EVQLVQSGGGVVQPGRSLRLSCVASGFTFSKDAMHWVRQAPGKGLEWVAVISYDGSDKHYADSVKGRVTISRDNSRKTLYLRMDSLRAEDTALYYCARGYNSGHYFDYWGQGTLITVSSGTGGSGGTGSGTGGSTQSVLTQPPSVSAAPGQKVTISCSGTSSNIGDNYVSWYQHLPGTAPKLLIYDNNKRPSGIPDRFSGSKSGTSATLGVTGLQTGDEADYYCGTWDSSLTAVVFGGGTKLTVLG
- binding [1]: binds

B3: SC04-299 (scFv)
scFv: EVQLVETGGGVVQPGRSLRLSCAASGFTFSGYAMHWVRQAPGKGLDWVAVISYDGSEKYSADSVKGRFTISRDNSKNTLYLQMNSLRAEDTAVYYCAKESGGPIWYKYYGVDVWGQGTTVTVSSGTGGSGGTGSGTGGSTSYVLTQPPSLSAAPRQRVTISCSGSSSNIGNYGVNWYQQLPGKAPKLLIYYDDLLPSGVSDRFSGSKSGTSASLAISGLQSEDEGDYYCAAWDDTLSAWVFGGGTKLTVLG
- binding [1]: binds

B4: CR4289 (antibody, V domains shown)
VH: EVQLVQSGAEVKKPGESLRISCKGSGYSFTSNWITWVRQMPGKGLEWMGRIDPSDSYTNYSPSFQGHVTISADKSISTAYLQWSSLKASDTAMYYCARDVVGVGASDYYYYMDVWGQGTTVTVSS
VL: EIVLTQSPGTLSLSPGETATLSCRTSQSVSSSYLGWYQQKPGQAPRLLIYGASIRATGIPARFSGSGSGTEFTLTIDSLQSEDFAVYYCQQYNNWPPITFGQGTRLEIKR
- binding [2]: binds
- binding [3]: binds

B5: SC04-271 (scFv)
scFv: EVQLVETGAEVKKPGESLRISCKGSGYTFNNYWIGWVRQMPGKGLEWMGIIYPGDSDTRYSPSVQGHVTISADKSINTAYLQWSSLKASDTAVYYCARRPGYDYGFYYFDYWGQGTLVTVSSGTGGSGGTGSGTGGSTQSALTQPRSVSGSPGQSVTISCTGTSSDVGGYNYVSWYQHHPGKAPKLMIYDVSNRPLGVSNRFSGSKSGNTASLTISGLQAEDEADYYCSSYTSSSTYVFGTGTHLTVLS
- binding [1]: binds

B6: CR4299 (antibody, V domains shown)
VH: QVQLVESGGGVVQPGRSLRLSCAASGFTFSGYAMHWVRQAPGKGLDWVAVISYDGSEKYSADSVKGRFTISRDNSKNTLYLQMNSLRAEDTAVYYCAKESGGPIWYKYYGVDVWGQGTTVTVSS
VL: SYVLTQPPSLSAAPRQRVTISCSGSSSNIGNYGVNWYQQLPGKAPKLLIYYDDLLPSGVSDRFSGSKSGTSASLAISGLQSEDEGDYYCAAWDDTLSAWVFGGGTKLTVLG
- binding [2]: binds
- binding [3]: binds

B7: SC04-289 (scFv)
scFv: QMQLVQSGAEVKKPGESLRISCKGSGYSFTSNWITWVRQMPGKGLEWMGRIDPSDSYTNYSPSFQGHVTISADKSISTAYLQWSSLKASDTAMYYCARDVVGVGASDYYYYMDVWGKGTTVTVSSGTGGSGGTGSGTGGSTEIVLTQSPGTLSLSPGETATLSCRTSQSVSSSYLGWYQQKPGQAPRLLIYGASIRATGIPARFSGSGSGTEFTLTIDSLQSEDFAVYYCQQYNNWPPITFGQGTRLEIKR
- binding [1]: binds
